Here are results for one substance from paper PMC11337750.

Amino acid sequences for entries named in this document (tags omitted). Residues count along the entry.
UniProt O60486, residues 35-1568: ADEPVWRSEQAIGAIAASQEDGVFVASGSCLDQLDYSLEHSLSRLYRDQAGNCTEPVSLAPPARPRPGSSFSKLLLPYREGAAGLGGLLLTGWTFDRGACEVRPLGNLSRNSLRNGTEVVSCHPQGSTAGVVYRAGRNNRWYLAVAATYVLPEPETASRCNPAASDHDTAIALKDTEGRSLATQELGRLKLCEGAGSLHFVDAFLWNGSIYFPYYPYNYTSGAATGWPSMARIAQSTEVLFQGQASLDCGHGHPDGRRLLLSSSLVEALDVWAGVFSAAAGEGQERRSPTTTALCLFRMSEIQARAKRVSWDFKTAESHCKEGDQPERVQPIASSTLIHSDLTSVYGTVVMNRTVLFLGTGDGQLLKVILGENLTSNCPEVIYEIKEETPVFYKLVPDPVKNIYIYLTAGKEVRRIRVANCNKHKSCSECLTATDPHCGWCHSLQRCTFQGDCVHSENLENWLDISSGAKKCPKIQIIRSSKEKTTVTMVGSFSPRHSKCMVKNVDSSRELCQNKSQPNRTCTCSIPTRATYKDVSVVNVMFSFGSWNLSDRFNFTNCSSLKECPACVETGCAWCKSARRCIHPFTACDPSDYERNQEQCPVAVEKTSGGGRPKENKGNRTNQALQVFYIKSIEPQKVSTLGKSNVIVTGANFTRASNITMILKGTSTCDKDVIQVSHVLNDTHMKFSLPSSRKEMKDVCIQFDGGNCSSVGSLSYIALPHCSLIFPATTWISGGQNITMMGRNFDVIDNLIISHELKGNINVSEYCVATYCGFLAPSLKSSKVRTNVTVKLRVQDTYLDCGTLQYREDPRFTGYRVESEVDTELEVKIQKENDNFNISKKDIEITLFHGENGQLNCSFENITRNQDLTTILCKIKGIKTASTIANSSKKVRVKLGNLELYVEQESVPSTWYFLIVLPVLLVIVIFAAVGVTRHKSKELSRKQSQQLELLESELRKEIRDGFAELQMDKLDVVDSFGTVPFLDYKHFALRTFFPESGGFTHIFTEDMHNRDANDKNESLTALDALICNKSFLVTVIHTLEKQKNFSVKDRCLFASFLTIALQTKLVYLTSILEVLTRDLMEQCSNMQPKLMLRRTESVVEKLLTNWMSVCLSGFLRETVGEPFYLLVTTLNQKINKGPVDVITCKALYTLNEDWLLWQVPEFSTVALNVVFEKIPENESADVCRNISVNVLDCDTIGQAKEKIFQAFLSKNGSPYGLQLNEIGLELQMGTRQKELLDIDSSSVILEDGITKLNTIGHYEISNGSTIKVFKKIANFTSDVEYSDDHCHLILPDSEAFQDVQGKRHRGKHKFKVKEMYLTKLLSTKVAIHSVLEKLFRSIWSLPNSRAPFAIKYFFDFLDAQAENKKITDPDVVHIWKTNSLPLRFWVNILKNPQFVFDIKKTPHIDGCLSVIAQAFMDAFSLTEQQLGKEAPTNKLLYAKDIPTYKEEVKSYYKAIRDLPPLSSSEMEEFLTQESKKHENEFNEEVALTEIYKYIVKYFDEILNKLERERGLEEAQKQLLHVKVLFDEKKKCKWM
UniProt Q8NFM4: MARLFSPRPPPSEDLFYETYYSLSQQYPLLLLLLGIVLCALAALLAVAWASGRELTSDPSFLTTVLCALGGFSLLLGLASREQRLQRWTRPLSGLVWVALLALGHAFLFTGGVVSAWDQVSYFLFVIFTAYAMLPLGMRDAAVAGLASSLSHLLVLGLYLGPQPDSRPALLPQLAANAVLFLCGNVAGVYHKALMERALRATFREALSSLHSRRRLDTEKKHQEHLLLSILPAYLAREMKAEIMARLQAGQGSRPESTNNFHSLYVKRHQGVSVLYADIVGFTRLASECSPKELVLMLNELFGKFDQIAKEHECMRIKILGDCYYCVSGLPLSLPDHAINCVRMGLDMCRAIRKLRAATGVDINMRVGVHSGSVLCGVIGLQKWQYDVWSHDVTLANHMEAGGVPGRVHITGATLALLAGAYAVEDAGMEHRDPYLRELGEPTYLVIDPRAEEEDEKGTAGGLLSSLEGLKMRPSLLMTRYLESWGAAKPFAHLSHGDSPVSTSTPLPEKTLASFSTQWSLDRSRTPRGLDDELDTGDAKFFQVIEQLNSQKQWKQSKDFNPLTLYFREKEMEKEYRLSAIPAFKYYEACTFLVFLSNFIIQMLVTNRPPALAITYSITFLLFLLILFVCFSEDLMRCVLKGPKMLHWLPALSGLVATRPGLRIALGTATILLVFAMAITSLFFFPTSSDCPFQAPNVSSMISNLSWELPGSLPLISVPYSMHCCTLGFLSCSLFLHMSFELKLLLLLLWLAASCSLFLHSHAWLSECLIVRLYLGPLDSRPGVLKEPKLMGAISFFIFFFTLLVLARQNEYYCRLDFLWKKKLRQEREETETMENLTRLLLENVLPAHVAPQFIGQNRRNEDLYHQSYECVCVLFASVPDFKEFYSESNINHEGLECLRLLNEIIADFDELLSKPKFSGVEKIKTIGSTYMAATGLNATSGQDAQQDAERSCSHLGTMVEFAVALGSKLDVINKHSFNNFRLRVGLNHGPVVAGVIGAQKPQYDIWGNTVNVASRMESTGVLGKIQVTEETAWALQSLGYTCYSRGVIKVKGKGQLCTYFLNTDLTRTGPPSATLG

The test concerns the target plexin C1 (PLXNC1) (human (endogenous in peripheral blood monocytes/macrophages)) (UniProt O60486). The test is described as follows: co-IP; endogenous proteins in lysate of human peripheral blood monocytes/macrophages (transfected with LPS according to the legend of Fig. 4D); anti-Plexin C1 antibody immobilised on resin (Pierce Co-IP kit), 1 mg protein, overnight at 4 °C; eluate blotted for ADCY4; mouse or rabbit IgG as control.

No constants are given. Whether binding was seen depends on the method and setting. Binding seen in cells or lysates may run through a third protein. Some entries that bind do so weakly or less than the wild type.

Take “adenylate cyclase 4 (ADCY4) (from UniProt Q8NFM4 1-1077) (enzyme)”: the binding entry is recorded as “binds”.
